{
  "source": "PubChem BioAssay AID504834",
  "about": "(National Center for Advancing Translational Sciences (NCATS), 2011)",
  "note": "Screen size: about 320,000 compounds; about 22,000 (6.9%) were called active. The inconclusive results got no clear call from the source; some entries with a clear call stand among them for comparison. The call rests on the fitted dose curve; in most records, active means well fitted inhibition curve with a large enough effect; inconclusive means small, poorly fitted or top-dose-only effect, or another doubt; inactive means no such curve, though single readings can be large or run the other way. Potencies of inconclusive entries are doubtful fits and often do not repeat. Potency means the concentration at half of the fitted maximal effect.",
  "data": [
    {"test": "Primary qHTS for delayed death inhibitors of the malarial parasite plastid, 96 hour incubation", "conditions": "P. falciparum luciferase reporter growth; series mostly up to 28.7 µM", "in_short": "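Delayed-death screen, second-generation endpoint: infected erythrocytes, 2% hematocrit, 0.05% parasitemia final; 96 hours at 37 C, 5% CO2; luciferase detection reagent; luminescence decrease equals reduced growth.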", "values": [
      {"smiles": "O=C(NCc1cc2ccccc2[nH]1)c1ccccc1F", "Potency": "inconclusive: 4.15 µM [inhibitor, single point]"},
      {"smiles": "O=S(=O)(c1ccccc1)c1nc(NCc2cccnc2)sc1Cl", "Potency": "inconclusive: 4.65 µM [inhibitor, partial curve, poor fit]"},
      {"smiles": "O=C(NCc1ccco1)c1ccc2c(c1)N(Cc1ccccc1)C(=O)CS2", "Potency": "inconclusive: 9.28 µM [inhibitor, partial curve]"},
      {"smiles": "CC[N+](CC)(CC=C(C)C)CC(=O)OC", "Potency": "inconclusive: 18.5 µM [inhibitor, single point]"},
      {"smiles": "CC(=C1C2C=CC1C1C(=O)NC(=O)C21)c1ccccc1", "note": "(centres undefined)", "Potency": "inconclusive: 10.4 µM [inhibitor, single point]"},
      {"smiles": "O=C(C1CCCCN1S(=O)(=O)c1ccccc1)N1CCN(Cc2ccccc2)CC1", "note": "(centres undefined)", "Potency": "inconclusive: 18.5 µM [inhibitor, single point]"},
      {"smiles": "C(#Cc1ccccc1)CN1CCN(c2ccccn2)CC1", "Potency": "inconclusive: 1.65 µM [inhibitor, partial curve]"},
      {"smiles": "Cc1onc(-c2c(F)cccc2Cl)c1C(=O)Nc1ccc(S(=O)(=O)Nc2ncccn2)cc1", "Potency": "inconclusive: 8.28 µM [inhibitor, partial curve, poor fit]"},
      {"smiles": "O=C(Cn1cnc2ccccc21)Nc1cc(C(F)(F)F)ccc1N1CCOCC1", "Potency": "active: 4.15 µM"},
      {"smiles": "O=C(Nc1nnc(C2CC2)o1)c1ccc(S(=O)(=O)N2CCc3ccccc3C2)cc1", "Potency": "inconclusive: 10.4 µM [inhibitor, partial curve, poor fit]"},
      {"smiles": "COc1cc(C(=O)NNC2=NC(C)(C)Cc3cc(C)c(C)cc32)cc(OC)c1OC", "Potency": "inactive"},
      {"smiles": "Cc1ccc(Nc2c(-c3ccccn3)nc3cccc(C)n23)cc1", "Potency": "inconclusive: 4.65 µM [inhibitor, partial curve, poor fit]"},
      {"smiles": "CCOC(=O)C1=C(C)Nc2nc(SCC(=O)OC)nn2C1c1cc(F)cc(F)c1", "note": "(centres undefined)", "Potency": "inconclusive: 10.4 µM [inhibitor, single point]"},
      {"smiles": "CC(C(=O)NCC1(c2ccccc2)CCCC1)N1CCCC1", "note": "(centres undefined)", "Potency": "inconclusive: 0.0828 µM [inhibitor, full curve, poor fit]"},
      {"smiles": "Cc1nc(N/N=C/c2cccc(F)c2)cc(N2CCOCC2)n1", "Potency": "active: 9.28 µM"},
      {"smiles": "Cc1c([N+](=O)[O-])c(N)nn1C", "Potency": "inactive"},
      {"smiles": "Cc1ccc(S(=O)(=O)Nc2cccc(C(=O)NCCN3CCOCC3)c2)cc1F", "Potency": "inactive"},
      {"smiles": "CC(CNC(=O)C(=O)NC(C)CCc1ccccc1)Cc1ccccc1", "note": "(centres undefined)", "Potency": "inactive"},
      {"smiles": "CCC1CCC2(CC1)NC(=O)N(CC(=O)Nc1cccc(S(=O)(=O)N(C)c3ccccc3)c1)C2=O", "note": "(centres undefined)", "Potency": "inconclusive: 20.8 µM [inhibitor, single point]"},
      {"smiles": "COc1ccc(S(=O)(=O)NCC2CCCN(C(=O)c3ccccc3)C2)cc1", "note": "(centres undefined)", "Potency": "inactive"},
      {"smiles": "CCOC(=O)N1CCC(c2nc(C)sc2C(=O)O)CC1", "Potency": "inactive"},
      {"smiles": "Cc1cc(C)cc(OCC(=O)OCC(=O)N(CC(C)C)c2c(N)n(Cc3ccccc3)c(=O)[nH]c2=O)c1", "Potency": "inactive"},
      {"smiles": "Cc1ccc(-c2nnc(SCC(=O)NC(=O)Nc3ccc(C)cc3C)n2N)cc1", "Potency": "inconclusive: 0.104 µM [inhibitor, full curve, poor fit]"},
      {"smiles": "Cc1cnn(C(=S)NCc2ccc(Cl)cc2)c1", "Potency": "inactive"},
      {"smiles": "NC(=S)N/N=C/c1c[nH]c2ccc(OCc3ccccc3)cc12", "Potency": "inconclusive: 18.5 µM [inhibitor, single point]"},
      {"smiles": "CCN(CC(=O)NCc1ccc(F)cc1)C(=O)/C=C/c1ccc(OC)c(S(=O)(=O)NC(C)C)c1", "Potency": "inconclusive: 10.4 µM [inhibitor, partial curve, poor fit]"},
      {"smiles": "NCCCn1c(C(=O)c2ccc(Cl)cc2)c2ccc([N+](=O)[O-])cc2[n+]1[O-]", "Potency": "inconclusive: 11.7 µM [inhibitor, single point]"},
      {"smiles": "Cc1cc(C)c(C)c(C(=O)CSc2nnc(-c3ccc4[nH]c(C)c(C)c4c3)o2)c1C", "Potency": "inconclusive: 13.1 µM [inhibitor, single point]"},
      {"smiles": "CCOC(=O)C1=C(CSc2nc3ccccc3s2)NC(=O)NC1c1cccc([N+](=O)[O-])c1", "note": "(centres undefined)", "Potency": "inconclusive: 0.165 µM [inhibitor, full curve, poor fit]"},
      {"smiles": "CC(=O)Nc1cccc(N(C)C)c1", "Potency": "inactive"},
      {"smiles": "CC1(C)NC(=O)N(CCCCOc2ccc3ccccc3c2Cl)C1=O", "Potency": "inconclusive: 6.57 µM [inhibitor, partial curve]"},
      {"smiles": "CCOC(=O)c1cc(-c2ccccc2)n(Cc2cc(CC)no2)n1", "Potency": "inactive"},
      {"smiles": "Cn1c(=O)c2sccc2n2c(CCCC(=O)NCc3ccc(F)cc3)nnc12", "Potency": "inconclusive: 7.38 µM [inhibitor, partial curve, poor fit]"},
      {"smiles": "COC(=O)[C@H](CC(C)C)NC(=O)N1CCCCC1", "Potency": "inactive"},
      {"smiles": "O=C(NCc1ccc2c(c1)OCO2)C(=O)Nc1cc2c3c(c1)CC(=O)N3CCC2", "Potency": "inconclusive: 13.1 µM [inhibitor, partial curve, poor fit]"},
      {"smiles": "COc1ccc(NC(=O)CN2CCOCC2)cc1S(=O)(=O)N1CCCCC1", "Potency": "inactive"},
      {"smiles": "CCc1ccccc1S(=O)(=O)Cc1ccc(C(=O)NCC2CCCO2)o1", "note": "(centres undefined)", "Potency": "inactive"},
      {"smiles": "COc1ccc(C2CC(=O)Oc3c(C(CCN4CCCC(C)C4)c4ccc(N(C)C)cc4)c(OC)cc(OC)c32)cc1", "note": "(centres undefined)", "Potency": "inconclusive: 1.47 µM [inhibitor, partial curve]"},
      {"smiles": "COCCNC(=O)c1cc(-c2ccc(Cl)c(Cl)c2)on1", "Potency": "inconclusive: 7.38 µM [inhibitor, partial curve]"},
      {"smiles": "Cc1ccc(-c2noc(CN(C)C(=O)c3ccc(Br)o3)n2)cc1", "Potency": "inconclusive: 9.28 µM [inhibitor, partial curve, poor fit]"},
      {"smiles": "Cc1onc(-c2ccccc2)c1-c1ccnn1C(=O)NC(C)C", "Potency": "inconclusive: 9.28 µM [inhibitor, single point]"},
      {"smiles": "Cc1ccccc1OCC(=O)Nc1nnc(-c2ccncc2)s1", "Potency": "active: 14.7 µM"},
      {"smiles": "CC[C@@]1(c2ccc(N)cc2)CCC(=O)NC1=O", "Potency": "inconclusive: 6.01 µM [inhibitor, partial curve, poor fit]"},
      {"smiles": "O=C1CC(c2cccc(Cl)c2)CC(O)=C1C=NC1CCCC1", "note": "(centres undefined)", "Potency": "inconclusive: 18.5 µM [inhibitor, single point]"}
    ]}
  ]
}
